Sequences and labels used below:
B1: NONO (protein, UniProt Q15233 1-471)
chain: MQSNKTFNLEKQNHTPRKHHQHHHQQQHHQQQQQQPPPPPIPANGQQASSQNEGLTIDLKNFRKPGEKTFTQRSRLFVGNLPPDITEEEMRKLFEKYGKAGEVFIHKDKGFGFIRLETRTLAEIAKVELDNMPLRGKQLRVRFACHSASLTVRNLPQYVSNELLEEAFSVFGQVERAVVIVDDRGRPSGKGIVEFSGKPAARKALDRCSEGSFLLTTFPRPVTVEPMDQLDDEEGLPEKLVIKNQQFHKEREQPPRFAQPGSFEYEYAMRWKALIEMEKQQQDQVDRNIKEAREKLEMEMEAARHEHQVMLMRQDLMRRQEELRRMEELHNQEVQKRKQLELRQEEERRRREEEMRRQQEEMMRRQQEGFKGTFPDAREQEIRMGQMAMGGAMGINNRGAMPPAPVPAGTPAPPGPATMMPDGTLGLTPPTTERFGQAATMEGIGAIGGTPPAFNRAAPGAEFAPNKRRRY

By UniProt entry, the sequences of proteins in these tests, tags left out.
UniProt P35637: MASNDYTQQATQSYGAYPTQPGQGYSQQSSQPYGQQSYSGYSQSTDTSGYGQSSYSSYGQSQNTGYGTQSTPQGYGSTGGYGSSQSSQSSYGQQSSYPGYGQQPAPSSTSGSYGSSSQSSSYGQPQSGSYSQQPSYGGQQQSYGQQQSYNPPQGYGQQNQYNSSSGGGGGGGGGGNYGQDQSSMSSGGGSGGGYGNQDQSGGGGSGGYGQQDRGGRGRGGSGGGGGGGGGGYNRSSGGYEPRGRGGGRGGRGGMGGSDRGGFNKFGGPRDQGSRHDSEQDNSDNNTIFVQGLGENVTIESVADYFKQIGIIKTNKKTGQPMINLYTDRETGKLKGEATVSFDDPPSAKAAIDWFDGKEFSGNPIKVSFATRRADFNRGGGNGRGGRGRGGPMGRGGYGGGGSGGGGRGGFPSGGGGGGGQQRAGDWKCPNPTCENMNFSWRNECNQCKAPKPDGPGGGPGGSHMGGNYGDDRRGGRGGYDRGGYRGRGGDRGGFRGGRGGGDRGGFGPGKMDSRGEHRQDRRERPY

Results are given in words; binding and its absence hold for the method and conditions named. In cells and extracts the contact can be indirect. Some binding calls cover weakened binding; strength is not graded here.

The target in the experiment is AGO1 fused with C-terminal Flag- and HA-epitope tags (e-AGO1) (human) (UniProt Q9UL18). Briefly: co-IP.
Regarding FUS (from UniProt P35637 1-526), the binding entry is given as “binds”. The same measure for HNRNPK (from UniProt P61978 1-463): “binds”; for B1: “binds”.
